This experiment concerns L1210 leukemia ip in BDF1 mice, survival T/C. The experiment can be described thus: NCI In Vivo Anticancer Drug Screen. Data for tumor model L1210 Leukemia (intraperitoneal) in B6D2F1 (BDF1) mice. Conditions: T/C endpoint: mean survival time, higher T/C = longer survival.
[1] abbreviates: dose: 200.0 mg/kg/injection, schedule: Q04DX003 (ip), vehicle: saline with Tween-80.
Setting [2] is: dose: 400.0 mg/kg/injection, schedule: Q01DX009 (ip), vehicle: saline.
The mark [3] stands for this setting: dose: 400.0 mg/kg/injection, schedule: Q04DX003 (ip), vehicle: saline.
Setting [4] is: dose: 600.0 mg/kg/injection, schedule: Q01DX009 (ip), vehicle: saline.
Setting [5] is: dose: 100.0 mg/kg/injection, schedule: Q01DX009 (ip), vehicle: saline with Tween-80.
The mark [6] stands for this setting: dose: 200.0 mg/kg/injection, schedule: Q01DX009 (ip), vehicle: Klucel (hydroxypropylcellulose) (HPC).
Setting [7] is: dose: 200.0 mg/kg/injection, schedule: Q01DX009 (ip), vehicle: saline.
[8] abbreviates: dose: 400.0 mg/kg/injection, schedule: Q01DX009 (ip), vehicle: Klucel (hydroxypropylcellulose) (HPC).
[9] abbreviates: dose: 100.0 mg/kg/injection, schedule: Q01DX009 (ip), vehicle: Klucel (hydroxypropylcellulose) (HPC).
Where [10] appears, read: dose: 400.0 mg/kg/injection, schedule: Q04DX003 (ip), vehicle: Klucel (hydroxypropylcellulose) (HPC).

Each structure is given as a SMILES string. The list shows only some results of the screen, not a fair sample: it is rich in T/C values a quarter to a half above the control, in often repeated tests (any T/C) and in doses without a T/C. Further doses and runs are listed elsewhere. T/C: endpoint of the treated group in % of that of the vehicle group. Some entries give survivors of the animals treated and no T/C: the source files T/C as zero there, which appears to mark a toxic dose or a test without result, not a measured value. Some doses without a T/C left all or most animals alive at the check, yet need not have been tolerated: survival well below the control is almost never listed, so the zero probably covers shortened survival too. Survivors were counted at the toxicity check, usually on the fifth day, unless a day is given; later deaths do not show. Schedules are NCI's codes, read here as Q, the interval in days (D) or hours (H), X, the number of doses. Some doses were run more than once; their values stand side by side, smallest first. Some schedule codes hold Z or #, which are not explained here. Where survival is the endpoint, this PubChem deposit counts one and a half times the control or more as active, and values a quarter to a half above the control carry no call in these data; other NCI protocols may use other cut-offs. Some T/C values carry the count of animals alive at the toxicity check (mostly the fifth day); where none is given, no animal had died by that day. Counts like (3×) stand for listed records that agree.

On to `CCN(CC)CCNC1CCCCC1`, for which the survivor count is reported as 1 of 6 under setting [1] and 0 of 6 (dose: 400.0 mg/kg/injection, schedule: Q04DX003 (ip), vehicle: saline with Tween-80).

Regarding `CSc1cc(N)nc2n[nH]nc12`, under “dose: 400.0 mg/kg/injection, schedule: Q01DX001 (ip), vehicle: Klucel (hydroxypropylcellulose) (HPC)”, the survivor count is given as 1 of 3.

Take `CN(O)C(N)=O`: the T/C (dose: 12.5 mg/kg/injection, schedule: Q03HX024 (ip), vehicle: saline) was 125 % of control; the T/C (dose: 23.0 mg/kg/injection, schedule: Q01DX009 (ip), vehicle: saline) is 128 % of control; the T/C (dose: 53.0 mg/kg/injection, schedule: Q01DX009 (ip), vehicle: saline) was 132 and 138 % of control; the T/C (dose: 76.0 mg/kg/injection, schedule: Q01DX009 (ip), vehicle: saline) was 144 % of control; the T/C (dose: 79.0 mg/kg/injection, schedule: Q01DX009 (ip), vehicle: saline) was 140 % of control; the T/C (dose: 116.0 mg/kg/injection, schedule: Q01DX009 (ip), vehicle: saline) was 135 and 144 % of control. Also, the T/C (dose: 118.0 mg/kg/injection, schedule: Q01DX009 (ip), vehicle: saline) is 145 % of control; the T/C (dose: 175.0 mg/kg/injection, schedule: Q04DX003 (ip), vehicle: saline) was 125 % of control; the T/C (dose: 178.0 mg/kg/injection, schedule: Q01DX009 (ip), vehicle: saline) is 146 % of control; the T/C (dose: 265.0 mg/kg/injection, schedule: Q01DX009 (ip), vehicle: saline) was 98, 110, 115 [5 of 6 alive], 149 % of control; the T/C (dose: 265.0 mg/kg/injection, schedule: Q04DX003 (ip), vehicle: saline) was 127 % of control; the T/C under setting [2] is 88, 101 [5 of 6 alive], 115 [9 of 10 alive], 124 [5 of 6 alive], 125, 174, 185 % of control. In addition, the T/C is, setting by setting: under setting [3], 127 % of control; under setting [4], 90, 94, 110, 124 % of control; (dose: 600.0 mg/kg/injection, schedule: Q04DX003 (ip), vehicle: saline) 136 and 147 % of control. The survivor count runs as follows: (dose: 100.0 mg/kg/injection, schedule: Q03HX024 (ip), vehicle: saline) 8 of 10; under setting [4], 6 of 6.

For `CN(C)c1ccc(/C=N/NC(=O)CCCCCCCCC(=O)N/N=C/c2ccc(N(C)C)cc2)cc1`, the T/C runs as follows: (dose: 50.0 mg/kg/injection, schedule: Q01DX009 (ip), vehicle: saline with Tween-80) 94, 97 (2×), 105 % of control; under setting [5], 94 and 103 % of control. In addition, the survivor count by setting is: under setting [5], 4 of 6 and 3 of 3; (dose: 200.0 mg/kg/injection, schedule: Q01DX009 (ip), vehicle: saline with Tween-80) 0 of 6 and 1 of 3; under setting [1], 6 of 6; (dose: 400.0 mg/kg/injection, schedule: Q01DX001 (ip), vehicle: saline with Tween-80) 0 of 3; (dose: 400.0 mg/kg/injection, schedule: Q04DX002 (ip), vehicle: saline with Tween-80) 3 of 6.

Take `S=c1[nH][nH]c(=S)s1`: the survivor count by setting is: under setting [6], 0 of 6; under setting [7], 1 of 3; under setting [8], 0 of 6.

Take `O=C(COCC(=O)N/N=C/c1ccc(Cl)cc1Cl)N/N=C\c1cc(Cl)cc(Cl)c1`: the survivor count under setting [8] is on record as 5 of 6.

As to `CCOP(=O)(OCC)C([O][Sb]([O]CC(C)Cl)[O]CC(C)Cl)c1ccc(OC)cc1` (configuration not stated), the survivor count reads like this: (dose: 200.0 mg/kg/injection, schedule: Q04DX003 (ip), vehicle: alcohol) 0 of 6; (dose: 400.0 mg/kg/injection, schedule: Q04DX003 (ip), vehicle: alcohol) 0 of 6.

`O=[N+]([O-])c1ccc(Cl)cc1/C=N\N=C1c2ccccc2-c2ccccc21`: the survivor count (dose: 75.0 mg/kg/injection, schedule: Q01DX001 (ip), vehicle: other) is on record as 6 of 6.

For the compound `O=C1OCC/C1=C/OCCO/C=C1\CCOC1=O`, the survivor count (dose: 400.0 mg/kg/injection, schedule: Q04DX002 (ip), vehicle: Klucel (hydroxypropylcellulose) (HPC)) is 3 of 3.

For the compound `C(CSC1=NCCN1)CSC1=NCCN1`, the survivor count under setting [3] is on record as 0 of 6.

Turning to `COc1ccc([N+](=O)[O-])cc1NS(=O)(=O)c1c(C)cc(C)cc1C`, the survivor count (dose: 400.0 mg/kg/injection, schedule: Q01DX009 (ip), vehicle: saline with Tween-80) is 6 of 6.

For the compound `CCOc1ccc(CC(=O)Nc2cc([N+](=O)[O-])ccc2NCCN(CC)CC)cc1`, the survivor count was 2 of 6 (dose: 200.0 mg/kg/injection, schedule: Q04DX003 (ip), vehicle: other) and 1 of 6 (dose: 400.0 mg/kg/injection, schedule: Q04DX003 (ip), vehicle: other).

With `NC(=O)c1ccccc1NC(=O)Nc1cccc(C(F)(F)F)c1`, the survivor count is, setting by setting: under setting [9], 6 of 6; under setting [6], 6 of 6; under setting [8], 6 of 6.

Turning to `CCn1cnc2c(SC3CCCC3)ncnc21`, the T/C reads like this: (dose: 250.0 mg/kg/injection, schedule: Q01DX015 (ip), vehicle: carboxymethylcellulose (CMC)) 142 % of control; (dose: 250.0 mg/kg/injection, schedule: Q01DX Z (ip), vehicle: carboxymethylcellulose (CMC)) 127 % of control; (dose: 375.0 mg/kg/injection, schedule: Q01DX015 (ip), vehicle: carboxymethylcellulose (CMC)) 141 % of control; (dose: 500.0 mg/kg/injection, schedule: Q01DX015 (ip), vehicle: carboxymethylcellulose (CMC)) 145 % of control [9 of 10 alive].

On to `C=CCOC(=O)COCC(=O)OCC=C`, for which the survivor count under setting [3] is 0 of 6.

In the case of `CN(C)/N=C1\CCc2ccccc21`, the survivor count was 5 of 6 under setting [7] and 0 of 6 under setting [2].

Take `CCCCN(CCCC)CCCCCN`: the survivor count (dose: 200.0 mg/kg/injection, schedule: Q01DX Z (ip), vehicle: carboxymethylcellulose (CMC)) is 0 of 6.

Consider `O=C(CCN1CC1)OCCc1ccccc1`, for which the survivor count is, setting by setting: under setting [9], 4 of 6; (dose: 200.0 mg/kg/injection, schedule: Q04DX003 (ip), vehicle: Klucel (hydroxypropylcellulose) (HPC)) 0 of 6; under setting [10], 0 of 6.

`CC1=CC(=O)C2=C(C)CCC3C(C)C(=O)OC3C12` (configuration not stated): the T/C (dose: 100.0 mg/kg/injection, schedule: Q01DX001 (ip), vehicle: saline with Tween-80) was 127 % of control.

Take `O=C(O)CSc1cc(Cl)c(Cl)cc1Cl`: where the note is “dose: 350.0 mg/kg/injection, schedule: Q04DX003 (ip), vehicle: other”, the survivor count was 0 of 6.

As for `O=C1C(N2CC2)=C(N2CCCC(O)C2)C(=O)C(N2CC2)=C1N1CCCC(O)C1` (configuration not stated), the T/C runs as follows: (dose: 0.75 mg/kg/injection, schedule: Q01DX009 (ip), vehicle: saline) 128 % of control; (dose: 1.0 mg/kg/injection, schedule: Q04DX003 (ip), vehicle: saline) 133 % of control; (dose: 1.5 mg/kg/injection, schedule: Q01DX009 (ip), vehicle: saline) 129 % of control [5 of 6 alive]; (dose: 2.6 mg/kg/injection, schedule: Q04DX003 (ip), vehicle: saline) 132 % of control; (dose: 3.0 mg/kg/injection, schedule: Q01DX009 (ip), vehicle: saline) 144 % of control; (dose: 8.0 mg/kg/injection, schedule: Q04DX003 (ip), vehicle: saline) 128 % of control.

For `O=C(O)c1c(Cl)c(Cl)c(Cl)c(C(=O)O)c1Cl`, under setting [10], the survivor count is listed as 3 of 6.

The values are drawn from PubChem BioAssay AID248 (DTP/NCI, 2004).
